At least one compound was matched to its structure with a doubt left.
Test system: human PKG (hPKG)
Assay: Human PKG IMAP fluorescence polarization kinase assay
Format: biochemical
Conditions: compound at 10 μm; recombinant hPKG, 10 uM ATP, 1 uM cGMP, FAM-IP3R substrate
Excerpt: Human PKG, cloned into a pENTR221 vector, was obtained from DNASU.org. (HsCD00351766). It was cloned into a mammalian expression plasmid, Gateway pDEST27 (Invitrogen) for expression as a GST fusion protein, using LR Clonase II Plus enzyme (Invitrogen). The hPKG-pDEST27 plasmid was amplified in DH5a Max Efficiency Competent Cells and purified with a PureYield Plasmid Midiprep System (Promega) following the manufactures protocol. Expi293 cells were transfected with hPKG-pDEST27 using the Expifectamine 293 Transfection Kit (Gibco). After 18 hours, enhancing reagent (Gibco) was added. Cells were then collected 48 hours post-enhancing, centrifuged at 2000×g for 10 min, washed in ice cold PBS and frozen as a pellet at −80° C. until protein purification. […]
Plasmodium falciparum PKG (PfPKG) and human PKG (hPKG) kinase activity was assayed using a commercial immobilized metal ion affinity-based fluorescence polarization (IMAP) assay according to the manufactures protocol (Molecular Devices). […] Fluorescent polarization was measured using a Synergy 2 Microplate reader (BioTek, Winooski, Vt.). Fluorescent polarization was read in parallel and perpendicular with an excitation wavelength of 485 nm and an emission wavelength of 528 nm. IC50 data were analyzed using a four parameter logistic curve fit using Microsoft Excel Solver.

C[C@H]1C[C@H](c2cc(-c3ccncc3)c(-c3ccc(F)cc3)[nH]2)CCN1C (single isomer, unassigned) [Example 30, 4-(5-(trans-1,2-dimethylpiperidin-4-yl)-2-(4-fluorophenyl)-1H-pyrrol-3-yl)pyridine]
Human PKG (10 μm): 5

Source: patent US20220227735A1, “THERAPEUTIC METHODS AND COMPOUNDS” (RUTGERS, THE STATE UNIVERSITY OF NEW JERSEY, priority 2019, published 2022)
